Results published in patent US20050048527.

Key:
Assay in all cases: enzyme reaction in vitro
[1] = biological target: Pfu R94A FEN1 (Pyrococcus furiosus) (UniProt O93634); settings: one methylphosphonate linkage in probe (Pd6), racemic; R94A cleaves methylphosphonate-modified probe; 50 C; purified recombinant protein; label: 5'-TET probe; folded or branched DNA
[2] = biological target: T1, Pfu FEN1 (Pyrococcus furiosus) (UniProt O93634); settings: 4 mM MgCl2, 50 C; rates in figure; purified recombinant protein; label: 5'-TET; folded or branched DNA
T1 sequence: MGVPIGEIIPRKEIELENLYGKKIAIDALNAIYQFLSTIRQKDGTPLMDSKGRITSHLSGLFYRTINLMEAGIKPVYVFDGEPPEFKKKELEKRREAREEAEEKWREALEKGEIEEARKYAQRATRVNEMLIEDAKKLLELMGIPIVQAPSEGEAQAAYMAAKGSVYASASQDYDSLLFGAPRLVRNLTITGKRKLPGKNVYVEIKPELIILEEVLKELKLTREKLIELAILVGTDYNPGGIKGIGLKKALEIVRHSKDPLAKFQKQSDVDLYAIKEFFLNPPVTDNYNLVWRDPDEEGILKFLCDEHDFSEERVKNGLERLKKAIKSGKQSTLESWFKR

[3] = biological target: Pfu Y33F FEN1 (Pyrococcus furiosus) (UniProt O93634); settings: reduced rate, specificity unchanged; purified recombinant protein; label: 5'-TET; folded or branched DNA
[4] = biological target: Pfu Y33A FEN1 (Pyrococcus furiosus) (UniProt O93634); settings: more reduced rate, specificity unchanged; purified recombinant protein; label: 5'-TET; folded or branched DNA

| Sequence | activity on this sequence [1] | activity on this sequence [2] | activity on this sequence [3] | activity on this sequence [4] |
| --- | --- | --- | --- | --- |
| CACTCCAGGGACGCGGACT / CTTTTACTCACCGCAGTTGGTCCGCGTCCCTGGAGTGTTC / TTTTCAACTGCGGTGAG [Pd6 substrate 1174-55-13] | active | – | – | – |
| AAAACGCTGTCTCGCTGAAAGCGAGACAGCGAAAGACGCTCGT / ACGAGCGTCTTTT [203-15-2/203-15-5] | – | active | less active | less active |

For some of these results: A weaker result is weaker than the reference pair of the same experiment.
